Measured values from patent US20260250312A1, “ANTIBACTERIAL COMPOUNDS ELIMINATING DORMANT BACTERIAL CELLS” (UNIVERSITÉ D'AIX-MARSEILLE, priority 2022, published 2026).

System: Escherichia coli (E. coli) persister cells
Assay: Anti-persister activity test, persister cells
Format: cell-based
Conditions: survival rates 96 h
Protocol: Anti-persister activity test: Escherichia coli (E. coli) persister cells were generated and isolated as described by MARQUES, C. N. H. et al. (Applied and Environmental Microbiology 2014, Vol. 80, No. 22, pp. 6976-6991). E. coli persister cells were compared to E. coli non-persister cells. 1 mL persister or non-persister bacteria culture was added in a 1.5 mL microtube with each of the compounds to be tested or ciprofloxacin as a […], and incubated at 37° C. with 160 rpm shaking for 4 hours. After 4 hours treatment with the compounds, the microtubes were centrifuged at 3,500g for 5 minutes and the pellets were resuspended in 1 mL of fresh drug free RM broth (10 g/L M9 salt, 2% casamino acids, 1 mM MgCl2, 1% glycerol). Resuspended bacteria were then plated over LB agar plates and incubated at 37° C. Bacterial colonies were enumerated after 24, 48 and 96 hours to estimate the survival rate.

COC(=O)[C@@H](Cc1ccccc1)NC(=O)CC[C@@H](C)[C@H]1CCC2C3C(CC[C@@]21C)[C@@]1(C)CC[C@H](NCCNCCNCCN)C[C@H]1C[C@H]3O (stereo partly drawn) [Compound S010, methyl ((4R)-4-((3S,5S,7R,10S,13R,17R)-3-((2-((2-((2-aminoethyl)amino)ethyl)amino)ethyl)amino)-7-hydroxy-10,13-dimethylhexadecahydro-1H-cyclopenta[a]phenanthren-17-yl)pentanoyl)-D-phenylalaninate]
Ratio (Persisters/Non-persisters) (concentration used 250 μM): 0.2

COC(=O)[C@H](Cc1ccccc1)NC(=O)CC[C@@H](C)[C@H]1CCC2C3C(CC[C@@]21C)[C@@]1(C)CC[C@H](NCCCNCCCCNCCCN)C[C@H]1C[C@H]3O (stereo partly drawn) [Compound S014, methyl ((4R)-4-((3S,5S,7R,10S,13R,17R)-3-((3-((4-((3-aminopropyl)amino)butyl)amino)propyl)amino)-7-hydroxy-10,13-dimethylhexadecahydro-1H-cyclopenta[a]phenanthren-17-yl)pentanoyl)-L-phenylalaninate]
Ratio (Persisters/Non-persisters) (concentration used 125 μM): 0.0

COC(=O)[C@H](Cc1ccc(O)cc1)NC(=O)CC[C@@H](C)[C@H]1CCC2C3C(CC[C@@]21C)[C@@]1(C)CC[C@H](NCCCNCCCCNCCCN)C[C@H]1C[C@H]3O (stereo partly drawn) [Compound S039, methyl ((4R)-4-((3S,5S,7R,10S,13R,17R)-3-((3-((4-((3-aminopropyl)amino)butyl)amino)propyl)amino)-7-hydroxy-10,13-dimethylhexadecahydro-1H-cyclopenta[a]phenanthren-17-yl)pentanoyl)-L-tyrosinate]
Ratio (Persisters/Non-persisters) (concentration used 62.5 μM): 0.0

COC(=O)[C@H]1CCCN1C(=O)CC[C@@H](C)[C@H]1CCC2C3C(CC[C@@]21C)[C@@]1(C)CC[C@H](NCCCNCCNCCCN)C[C@H]1C[C@H]3O (stereo partly drawn) [Compound S046, methyl ((4R)-4-((3S,5S,7R,10S,13R,17R)-3-((3-((2-((3-aminopropyl)amino)ethyl)amino)propyl)amino)-7-hydroxy-10,13-dimethylhexadecahydro-1H-cyclopenta[a]phenanthren-17-yl)pentanoyl)-D-prolinate]
Ratio (Persisters/Non-persisters) (concentration used 125 μM): 0.0

CC[C@@H](C)[C@H](NC(=O)CC[C@@H](C)[C@H]1CC[C@H]2[C@@H]3[C@H](O)C[C@@H]4C[C@@H](NCCCNCCCCNCCCN)CC[C@]4(C)[C@H]3CC[C@]12C)C(=O)OC [Compound S044, methyl (2S,3R)-2-((4R)-4-((3S,5S,7R,10S,13R,17R)-3-((3-((4-((3-aminopropyl)amino)butyl)amino)propyl)amino)-7-hydroxy-10,13-dimethylhexadecahydro-1H-cyclopenta[a]phenanthren-17-yl)pentanamido)-3-methylpentanoate]
Ratio (Persisters/Non-persisters) (concentration used 62.5 μM): 0.0

COC(=O)[C@H](NC(=O)CC[C@@H](C)[C@H]1CCC2C3CC[C@@H]4C[C@@H](NCCCNCCCCNCCCN)CC[C@]4(C)C3C[C@H](O)[C@@]21C)C(C)C (stereo partly drawn) [Compound S052, methyl ((4R)-4-((3S,5R,10S,12S,13R,17R)-3-((3-((4-((3-aminopropyl)amino)butyl)amino)propyl)amino)-12-hydroxy-10,13-dimethylhexadecahydro-1H-cyclopenta[a]phenanthren-17-yl)pentanoyl)-D-valinate]
Ratio (Persisters/Non-persisters) (concentration used 62.5 μM): 0.0

COC(=O)[C@@H](NC(=O)CC[C@@H](C)[C@H]1CCC2C3C(CC[C@@]21C)[C@@]1(C)CC[C@H](NCCCNCCNCCCN)C[C@H]1C[C@H]3O)C(C)C (stereo partly drawn) [Compound S013, methyl ((4R)-4-((3S,5S,7R,10S,13R,17R)-3-((3-((2-((3-aminopropyl)amino)ethyl)amino)propyl)amino)-7-hydroxy-10,13-dimethylhexadecahydro-1H-cyclopenta[a]phenanthren-17-yl)pentanoyl)-L-valinate]
Ratio (Persisters/Non-persisters) (concentration used 250 μM): 0.0

COC(=O)[C@H](Cc1ccc(O)cc1)NC(=O)CC[C@@H](C)[C@H]1CCC2C3C(CC[C@@]21C)[C@@]1(C)CC[C@H](NCCCNCCNCCCN)C[C@H]1C[C@H]3O (stereo partly drawn) [Compound S042, methyl ((4R)-4-((3S,5S,7R,10S,13R,17R)-3-((3-((2-((3-aminopropyl)amino)ethyl)amino)propyl)amino)-7-hydroxy-10,13-dimethylhexadecahydro-1H-cyclopenta[a]phenanthren-17-yl)pentanoyl)-L-tyrosinate]
Ratio (Persisters/Non-persisters) (concentration used 125 μM): 312.2

CC[C@H](C)[C@H](NC(=O)CC[C@@H](C)[C@H]1CC[C@H]2[C@@H]3[C@H](O)C[C@@H]4C[C@@H](NCCCNCCNCCCN)CC[C@]4(C)[C@H]3CC[C@]12C)C(=O)OC [Compound S041, methyl (2S,3S)-2-((4R)-4-((3S,5S,7R,10S,13R,17R)-3-((3-((2-((3-aminopropyl)amino)ethyl)amino)propyl)amino)-7-hydroxy-10,13-dimethylhexadecahydro-1H-cyclopenta[a]phenanthren-17-yl)pentanamido)-3-methylpentanoate]
Ratio (Persisters/Non-persisters) (concentration used 125 μM): 4.7

COC(=O)[C@H](NC(=O)CC[C@@H](C)[C@H]1CCC2C3C(C[C@H](O)[C@@]21C)[C@@]1(C)CC[C@H](NCCCN(CCCN)CCCN)C[C@H]1C[C@H]3O)C(C)C (stereo partly drawn) [Compound S060, methyl ((4R)-4-((3S,5S,7R,10S,12S,13R,17R)-3-((3-(bis(3-aminopropyl)amino)propyl)amino)-7,12-dihydroxy-10,13-dimethylhexadecahydro-1H-cyclopenta[a]phenanthren-17-yl)pentanoyl)-D-valinate]
Ratio (Persisters/Non-persisters) (concentration used 250 μM): 0.5

O=C(O)c1cn(C2CC2)c2cc(N3CCNCC3)c(F)cc2c1=O [Ciprofloxacin, ciprofloxacin, reference compound]
Ratio (Persisters/Non-persisters) (concentration used 200 μM): 1617.7
